This is an account of results in the supplement of paper PMC10689618.

The list shows a part of the results. Many values rest on one well or one pass, so single values are uncertain.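 Labelled rat cortical synaptosomes were engulfed by primary human fetal astrocytes. Engulfment equaled a red/green ratio, corrected for calcein live-cell signal and normalized to the plate median. Compounds were toxic when calcein dropped over 30%, and reduced phagocytosis when below 70% of the median above 5 µM.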

In the first test the test system is Human fetal astrocytes. The test can be described thus: loss of total cells relative to no-compound high-control median (toxicity); higher = more toxic (fewer cells). Conditions: 22.22 µM; 24 h.
As for `CC(CCC(=O)O)[C@H]1CCC2C3CC[C@@H]4CC(=O)CC[C@]4(C)C3C=C[C@@]21C` (some centres undefined), the “loss of total cells” value turned out to be 5.9%. Same read-out and setting: under `CCOC(=O)[N-]c1c[n+](N2CCOCC2)no1` [Molsidomine] stands -42.2%; under `CN(C(=O)CN(CCO)CC(=O)N(C)C(C)(C)Cc1ccccc1)C(C)(C)Cc1ccccc1`, 18.4%. `COc1ccc(CN(CCN(C)C)c2ncccn2)cc1`: the “loss of total cells” value stood at 0.9%. The same measure, in the same setting: under `C[N+](C)(C)CCOP(=O)(O)OP(=O)([O-])OC[C@H]1O[C@@H](n2ccc(N)nc2=O)[C@H](O)[C@@H]1O` stands -0.3%; under `OC[C@H]1O[C@@](CO)(O[C@H]2O[C@H](CO)[C@@H](O)[C@H](O)[C@H]2O)[C@@H](O[C@H]2O[C@H](CO)[C@@H](O)[C@H](O)[C@H]2O)[C@@H]1O`, 9.6%; under `CC(C)/C(O)=C1/C(=O)O[C@@H](c2ccoc2)[C@]2(C)C(O)[C@@H](O)[C@@]34OC5(C)OC67CC(C)(C(O)[C@]6(O)[C@@H](O)[C@]3(O5)C12)[C@H](CC(=O)O)[C@]74C` (some centres undefined), 14.4%. On the same count and under the same terms, under `CCN1CCCC(OC(=O)C(c2ccccc2)c2ccccc2)C1` (centres undefined) stands 7.8%. On to `Cc1cc(C)nc(NS(=O)(=O)c2ccc(N)cc2)n1`, for which the “loss of total cells” value is -20.4%. Take `C=C1C(=O)[C@]23[C@H](CC[C@@H]1[C@@H]2O)[C@]12CO[C@@]3(O)[C@H](O)[C@H]1C(C)(C)CC[C@@H]2O`: the “loss of total cells” value turned out to be 34.8%.

The next test concerns Human fetal astrocytes. Description: synaptosome phagocytosis (pHrodo/calcein intensity ratio) relative to plate median of data wells; higher = more phagocytosis. The note with it: 1.39 µM; 24 h.
Turning to `C[C@@H]1CC[C@@]2(OC1)O[C@H]1C[C@H]3[C@@H]4CC[C@H]5C[C@@H](O)CC[C@]5(C)[C@H]4CC[C@]3(C)[C@H]1[C@@H]2C`, the synaptosome phagocytosis was 98.3%.

On to `c1coc(CNc2ncnc3[nH]cnc23)c1`, for which the synaptosome phagocytosis is 120%. In the case of `OC(c1cc(C(F)(F)F)nc2c(C(F)(F)F)cccc12)C1CCCCN1` (centres undefined), the synaptosome phagocytosis is 100%.

Regarding `Oc1c(Cl)cc(Cl)c(Cl)c1Cc1c(O)c(Cl)cc(Cl)c1Cl`, the synaptosome phagocytosis was 88.8%.

Consider `O=C(O)CCCC[C@@H]1SC[C@@H]2NC(=O)N[C@@H]21`, for which the synaptosome phagocytosis is 101%.

With `O=c1cc(-c2ccc(O)c(O)c2)oc2cc(O)cc(O)c12`, the synaptosome phagocytosis is 96.1%. On the same count and under the same terms, under `CCC(CCC(C)C1CCC2C3CCC4CC(O)CCC4(C)C3CCC12C)C(C)C` (centres undefined) stands 128%; under `Nc1nc(=S)c2ncn([C@@H]3O[C@H](CO)[C@@H](O)[C@H]3O)c2[nH]1`, 51.9%; under `C=CC(C1=CC(=O)C(OC)=CC1=O)c1ccc(O)cc1` (centres undefined), 181%. Same read-out and setting: as for `O=C1C(CC[S+]([O-])c2ccccc2)C(=O)N(c2ccccc2)N1c1ccccc1` (centres undefined), the figure is 110%; as for `CN1CCCN=C1/C=C/c1cccc(O)c1`, 109%; as for `O=C(O)c1ccc(S(=O)(=O)N(Cl)Cl)cc1`, 82.9%. In the case of `COc1ccc(-c2cc(=O)c3c(OC)c(OC)c(OC)c(OC)c3o2)cc1`, the synaptosome phagocytosis is 89.8%. Consider `COc1ccc2oc(-c3ccccc3)c(OC)c(=O)c2c1`, for which the synaptosome phagocytosis is 60.8%. Same read-out and setting: under `CN1CCc2c(c3ccccc3n2Cc2ccccc2)C1` stands 90.2%. The same measure, in the same setting: as for `CC[C@@]1(O)C(=O)OCc2c1cc1n(c2=O)Cc2cc3c(CN(C)C)c(O)ccc3nc2-1`, the figure is 111%. The same measure, in the same setting: under `N=C(N)NCCN1CCCCCCC1` stands 86.2%. On to `N[C@@H](COCc1ccccc1)C(=O)O`, for which the synaptosome phagocytosis was 113%. The same measure, in the same setting: as for `CCOC(=O)[C@H](CCc1ccccc1)N[C@@H](C)C(=O)N1CCC[C@H]1C(=O)O`, the figure is 100%; as for `COC(=O)C[C@H]1C(C)(C)[C@@H](O)[C@@H]2CC3=C4C=C(OC)O[C@@H](c5ccoc5)[C@]4(C)CCC3[C@@]1(C)C2=O` (stereo partly drawn) [3-DEOXO-3beta-HYDROXYMEXICANOLIDE 16-ENOL ETHER], 103%. Still for that read-out and setting: as for `CN1CCN(C(c2ccccc2)c2ccccc2)CC1`, the figure is 113%. On the same count and under the same terms, under `N[C@@H](CCC(=O)N[C@@H](CSC(CC(=O)O)C(=O)O)C(=O)NCC(=O)O)C(=O)O` (some centres undefined) stands 148%; under `Cc1ccc(S(=O)(=O)NC(=O)NN2CC3CCCC3C2)cc1` (centres undefined), 113%; under `CC[C@H]1OC(=O)C[C@@H](O)[C@H](C)[C@@H](O[C@@H]2O[C@H](C)[C@@H](O)[C@H](N(C)C)[C@H]2O)[C@@H](CCN2C[C@H](C)C[C@H](C)C2)C[C@@H](C)C(=O)/C=C/C(C)=C/[C@@H]1CO[C@@H]1O[C@H](C)[C@@H](O)[C@@H](OC)[C@H]1OC`, 124%.

Consider `Nc1ccccc1S(N)(=O)=O`, for which the synaptosome phagocytosis is 119%. Same read-out and setting: as for `O=c1c(O)cc([C@H]2Oc3cc(O)cc(O)c3C[C@H]2O)cc2c([C@H]3Oc4cc(O)cc(O)c4C[C@H]3O)cc(O)c(O)c12`, the figure is 151%; as for `Cc1nc(C)c(Cl)c(O)c1Cl`, 116%. On the same count and under the same terms, as for `CC(=O)O[C@H]1CC[C@]2(C)[C@H]3CC=C4[C@@H]5CC(C)(C)CC[C@]5(C)CC[C@@]4(C)[C@]3(C)CC[C@H]2C1(C)C` [beta-AMYRIN ACETATE], the figure is 88%; as for `C#C[C@]1(OC(C)=O)CC[C@H]2[C@@H]3CCC4=C[C@@H](OC(C)=O)CC[C@@H]4[C@H]3CC[C@@]21C`, 111%. On the same count and under the same terms, as for `CC(CCC(=O)O)[C@H]1CCC2C3CC[C@@H]4CC(=O)CC[C@]4(C)C3C=C[C@@]21C` (some centres undefined), the figure is 115%; as for `CCOC(=O)[N-]c1c[n+](N2CCOCC2)no1` [Molsidomine], 102%; as for `CN(C(=O)CN(CCO)CC(=O)N(C)C(C)(C)Cc1ccccc1)C(C)(C)Cc1ccccc1`, 137%. With `COc1ccc(CN(CCN(C)C)c2ncccn2)cc1`, the synaptosome phagocytosis was 97.8%.

Turning to `C[N+](C)(C)CCOP(=O)(O)OP(=O)([O-])OC[C@H]1O[C@@H](n2ccc(N)nc2=O)[C@H](O)[C@@H]1O`, the synaptosome phagocytosis is 93.4%. On the same count and under the same terms, as for `OC[C@H]1O[C@@](CO)(O[C@H]2O[C@H](CO)[C@@H](O)[C@H](O)[C@H]2O)[C@@H](O[C@H]2O[C@H](CO)[C@@H](O)[C@H](O)[C@H]2O)[C@@H]1O`, the figure is 121%; as for `CC(C)/C(O)=C1/C(=O)O[C@@H](c2ccoc2)[C@]2(C)C(O)[C@@H](O)[C@@]34OC5(C)OC67CC(C)(C(O)[C@]6(O)[C@@H](O)[C@]3(O5)C12)[C@H](CC(=O)O)[C@]74C` (some centres undefined), 99.5%. Regarding `CCN1CCCC(OC(=O)C(c2ccccc2)c2ccccc2)C1` (centres undefined), the synaptosome phagocytosis is 120%. As to `Cc1cc(C)nc(NS(=O)(=O)c2ccc(N)cc2)n1`, the synaptosome phagocytosis is 123%.

On to `C=C1C(=O)[C@]23[C@H](CC[C@@H]1[C@@H]2O)[C@]12CO[C@@]3(O)[C@H](O)[C@H]1C(C)(C)CC[C@@H]2O`, for which the synaptosome phagocytosis is 124%.
